Source: PubChem BioAssay AID504582 (Broad Institute, 2011)
Values joined by “and” are separate entries in the source; they are usually repeats but may differ in a detail not shown here. Equal entries are not always repeated. About 2,300 (0.68%) of roughly 340,000 compounds were called active. The inconclusive results got no clear call from the source; some entries with a clear call stand among them for comparison. Rule as the data show it: active = growth rescue above about 28% (passing the limit was not always enough); inconclusive = no clear call, values can overlap the other calls.

Assay: rescue of yeast from PfHsp40 toxicity, primary screen, S. cerevisiae, ATP luminescence (AID 504582);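 also: yeast W303a lacking pdr1 and pdr3 grown in galactose medium; growth measured after three days at 30 °C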
Details: S. cerevisiae expressing PfHsp40, growth rescue, at 12.5 µM, stronger effect = higher value

Structure (SMILES)	growth rescue
CCOc1ccc(CC(=O)Nc2nccs2)cc1OCC	active: 37.9%
CCOC(=O)c1c(C)nc2ccccc2c1C	inactive: 0.759%
COc1ccc(C=NCC2COc3ccccc3O2)cc1OC (configuration not stated)	inconclusive: 77.7%
CCCOc1ccc(N2C(=O)CC(N3CCC(C(=O)OCC)CC3)C2=O)cc1 (configuration not stated)	active: 523%
CCn1c(C)nc2cc(C(=O)OC(C(F)(F)C(F)F)C(F)(F)C(F)F)ccc21	inconclusive: 144%
COc1cccc2c1C(=O)c1c(O)c3c(c(O)c1C2=O)CC(O)(C(C)=O)CC3OC1CC(N(C)C)C(O)C(C)O1 (configuration not stated)	active: 401%
CCOC(=O)C1(Cc2cccc(F)c2)CCN(Cc2ccon2)CC1	inconclusive: 26.2%
Cc1nn(-c2ccccc2)c(N)c1N=Nc1ccc(Cl)cc1	inconclusive: 38.6%
CCn1c(COc2ccccc2)nnc1SCC(=O)Nc1cc(C)ccc1OC	inactive: 0.53%
Cc1[nH]c(=O)[nH]c1C(=O)CCCCC(=O)OCC(=O)Nc1ccccn1	inconclusive: 89.9%
COC(=O)[C@H](Cc1ccccc1)NC(=O)NC(C)CCc1ccccc1 (some centres not stated)	inactive: -0.0945%
O=C(COC(=O)c1cccs1)Nc1cccc(S(=O)(=O)NC2=NCCCCC2)c1	inactive: -0.105%
O=C(Nc1ccc2c(c1)N(S(=O)(=O)c1cccs1)CCC2)c1c(F)cccc1Cl	inconclusive: 38.8%
O=C(COC(=O)c1ccc(Oc2ccccc2)cc1)Nc1nnc(-c2ccccc2)o1	inconclusive: 46.3%
Fc1ccc(SCCc2ccccn2)cc1	inactive: -0.533% and inactive: -0.777%
CCN1CCN(CC(=O)Nc2cc(S(=O)(=O)N3CCCCC3)ccc2Cl)CC1	active: 56.3%
C=CCN(CC=C)C(=S)NC(=O)c1ccc(OC)c(Br)c1	active: 55.6%
COc1cccc(NC(=O)Nc2cccc(C(=O)O)c2)c1	inactive: 1.59%
O=C(COC(=O)CC1CCCC1)Nc1cc2c(cc1Cl)C(=O)c1ccccc1C2=O	inconclusive: 45.7%
COc1cccc(/C=C2\SC(=S)N(N3C(=O)CCCC3=O)C2=O)c1	inconclusive: 50.4%
CC(C)Sc1nc(N)nc(-c2cccs2)c1C#N	inconclusive: 35.3%
CCCn1c(SCC(=O)N2CCCC(C)C2)nnc1-c1ccccn1 (configuration not stated)	inactive: -1.51%
CCOc1cc(C(=O)NCC2CCCO2)cc(OCC)c1OCC (configuration not stated)	inactive: 0.654%

Structure (SMILES)	growth rescue
Nc1ncnc2c1ncn2CCOc1ccccc1	inconclusive: 31.6%
CC(C)=CCc1cc([C@@H]2COc3c(ccc4c3C=CC(C)(C)O4)C2)c(O)cc1O	inconclusive: 42.2%
O=C(Nc1nnc(S(=O)(=O)Cc2ccc(F)cc2)s1)c1ccccc1F	active: 45.4%
CCCn1nc([N+](=O)[O-])c(C(C#N)c2nc3ccccc3s2)c(Cl)c1=O (configuration not stated)	inconclusive: 34.7%
CCCC(=O)N(Cc1cc(=O)[nH]c2ccccc12)c1ccc(OC)cc1	inactive: 0.099%
O=C(CN1CCN(Cc2ccccc2)CC1)Nc1ccc(Br)cc1	inconclusive: 27%
O=C1NC(=O)C(=Cc2ccc(Cl)cc2Cl)S1	inconclusive: 40.2%
O=C(NCc1ccc(F)cc1)c1cnn2ccccc12	inactive: 0.408%
CC(=O)N1CCc2cc(S(=O)(=O)CCC(=O)N3CCN(C(=O)c4ccco4)CC3)ccc21	inconclusive: 114%
O=S(=O)(Nc1cc(S(=O)(=O)N2CCOCC2)ccc1NCC1CCCO1)c1ccccc1 (configuration not stated)	inconclusive: 45.7%
O=C(CNS(=O)(=O)c1ccc(Br)cc1)Nc1ccc2c(c1)OCCO2	inactive: 0.603%
CCCCCCCCCC(=O)N[C@@H]1c2cc(OC)c(OC)cc2C[C@H]1O	inactive: 0.718%
CCOC(=O)c1ccc(N2C(=O)CC(N3CCC(Nc4ccc(F)cc4)CC3)C2=O)cc1 (configuration not stated)	inconclusive: 48.4%
c1ccc(Oc2cccc(OCCCn3cncn3)c2)cc1	active: 94.8%
O=C1N=C(N2CCN(Cc3ccccc3)CC2)S/C1=C/c1cccs1	inconclusive: 86.8%
Cc1ccc(-c2cc(-c3ccccc3C)[nH]n2)c(O)c1	inconclusive: 54.3%
CCOC(=O)N1C(=O)C2(CCCCC2)N(c2ccccc2Cl)C1=S	active: 284%
NS(=O)(=O)c1ccc(NCc2cc(Cl)ccc2OCc2ccccc2F)cc1	inconclusive: 39.2%
O=S(=O)(Nc1nc(-c2sccc2Cl)cs1)c1cc(Cl)ccc1Cl	inconclusive: 30.6%
Cc1ccc(S(=O)(=O)c2c(O)c3ccc(C(=O)O)cc3[nH]c2=O)cc1	inconclusive: 50.4%
CC(=O)N(C(C)=O)c1ncc2c([nH]c3ccccc32)c1C#N	inactive: -0.232%
Cc1cc(C(=O)OCC(=O)NCc2ccccc2)c2ccccc2n1	inactive: 1.06%
CCOC(=O)c1sc(-c2ccc(Cl)cc2)nc1O	inconclusive: 27.1%

Fetched one by one from the entries so far, 4 records:
Structure (SMILES)	growth rescue
CCCC(=O)N(Cc1cc(=O)[nH]c2ccccc12)c1ccc(OC)cc1	inactive: 0.099%
CC(C)=CCc1cc([C@@H]2COc3c(ccc4c3C=CC(C)(C)O4)C2)c(O)cc1O	inconclusive: 42.2%
O=C(CN1CCN(Cc2ccccc2)CC1)Nc1ccc(Br)cc1	inconclusive: 27%
CCCn1nc([N+](=O)[O-])c(C(C#N)c2nc3ccccc3s2)c(Cl)c1=O (configuration not stated)	inconclusive: 34.7%

Continued.

Structure (SMILES)	growth rescue
O=c1ccc2cc3c([nH]c4ccc(Br)cc43)oc-2c1O	active: 228%
COc1ccc(C2CC(=O)c3c(O)cc(O)cc3O2)c(CC=C(C)C)c1OC (configuration not stated)	inconclusive: 71.5%
O=C1N=C2SCCN2/C1=C\c1ccc(Cl)cc1	inactive: 3.03%
CCC1CCC2(CC1)NC(=O)N(CC(=O)Nc1ccc(OC)cc1)C2=O (configuration not stated)	inconclusive: 29.2%
CCc1nc(SCC(=O)OC)c2c3c(sc2n1)COC(C)(C)C3	inconclusive: 44.2%
O=C(Cc1ccc(Cl)cc1)NNC1CC(=O)N(c2ccc3ccccc3c2)C1=O (configuration not stated)	inactive: 0.287%
Oc1c(C(Nc2cccc(C(F)(F)F)c2)c2cccnc2)ccc2cccnc12 (configuration not stated)	active: 382%
Cc1cc2c(cc1C)CSC(c1c(O)ccc3ccccc13)SC2	active: 160%
CCOc1cc(C=O)ccc1OCCSc1ccc(C)cc1	inconclusive: 41%
CCOC(=O)c1cnc(-n2nc(C)cc2C)nc1NCCc1ccccc1	active: 65.1%
S=C(NCCC(c1ccccc1)c1ccccc1)Nc1ccc(Cl)cc1	inconclusive: 27.5%
[O-][n+]1cccc2c(Br)cc(Br)c(O)c21	active: 310%
Cc1nc2ccc(C(C(F)(F)F)(C(F)(F)F)C(F)(F)F)cc2[nH]1	active: 241%
CCCCNC(=O)N1CCN(C(c2ccccc2)c2ccccc2)CC1	inconclusive: 26.6%
Cc1ccc(NC(=O)CN2CCCC2c2cccn2C)cc1C (configuration not stated)	inconclusive: 50.6%
O=C(NCC1CCCO1)c1cccc(Oc2ccc([N+](=O)[O-])cc2Cl)c1 (configuration not stated)	inconclusive: 46.5%
CC(C)CSc1nc(N)nc2c1ncn2C1OC(CO)C(O)C1O (configuration not stated)	inconclusive: 29%
CC1Cc2nc(SCC(=O)N3CCOCC3)n(C)c(=O)c2S1 (configuration not stated)	inconclusive: 29.3%
CCOC(=O)C1=C(N)N(c2ccccc2Oc2ccccc2)C(=O)C1	inactive: -0.129%
CCOc1ccc2c(c1)-c1c(ssc1=S)C(C)(C)N2C(=O)CSC1=NCCS1	inactive: 0.18%
CC(=O)Nc1cn(-c2ccccc2)nc1-c1ccccc1	inactive: -0.43%
COc1cccc(-n2nc(C#N)c(Cl)cc2=O)c1	active: 52.4%
CCCNC(=O)c1ccc2c(=O)c(O)c(-c3cccc(Br)c3)[nH]c2c1	active: 182%

Structure (SMILES)	growth rescue
COc1ccc(NC(=S)N(Cc2ccc(C)cc2)Cc2ccccn2)cc1	inconclusive: 28.1%
CN1C/C(=C/c2ccsc2)C(=O)/C(=C/c2ccsc2)C1	inactive: 3.34%
C/C=C/Cn1c(SC)nc2c1c(=O)[nH]c(=O)n2C	inactive: -0.824%
Cn1c(=O)oc2cc(S(=O)(=O)N3CCC(C(=O)N4CCc5ccccc5C4)CC3)ccc21	inconclusive: 49.9%
COc1ccccc1-n1cnnc1SCC(=O)NCc1cccs1	inconclusive: 48%
CS(=O)(=O)c1nc(-c2ccc(F)cc2)cc(C(F)(F)F)n1	inactive: 0.219%
CC(C)NC(=O)C1CCCN(S(=O)(=O)c2ccc(-n3cnnn3)cc2)C1 (configuration not stated)	inactive: 1.15%
CC(=O)Nc1ccc(NC(=O)CN(c2cccc(C)c2)S(C)(=O)=O)cc1	inconclusive: 25.4%
O=C(c1ccccc1-c1nc(-c2ccccc2)no1)N1CCCC1	inconclusive: 36.7%
O=C(NNC(=S)Nc1cccc(C(F)(F)F)c1)c1ccccc1Cl	inconclusive: 26.4%
Cc1ccc(S(=O)(=O)N2[C@@H](c3cccc(Cl)c3)C(C(=O)O)=CC[C@H]2c2ccc(Cl)cc2)cc1	inconclusive: 60.2%
O=C(O)c1cccc(-n2sc3ccccc3c2=O)c1	active: 52.1%
CCOc1ccc(-n2c(C)nc3cc(C(=O)NCC4CCCO4)ccc32)cc1 (configuration not stated)	inactive: -0.368%
CCOc1ccc(-c2c(=O)n(OCC)c3ccccc3[n+]2[O-])cc1	inconclusive: 52.2%
COc1ccc(CCNC(=O)CSCc2ccc(Cl)cc2)cc1OC	inactive: 1.55%
N#Cc1cccc(Nc2c3c(nc4ccccc24)CCCC3)c1	inconclusive: 28.1%
CCOc1ccccc1C(=O)n1nc(C)cc1C	inconclusive: 36.6%
Cc1ccc(Nc2nc(N)c([N+](=O)[O-])c(N3CCCC(C)C3)n2)cc1C (configuration not stated)	inconclusive: 71.3%
Nc1nc(COC(=O)CCC(=O)c2ccccc2)nc(Nc2ccccc2)n1	inconclusive: 27.3%
OC(Cn1cncn1)(Cn1cncn1)c1ccc(F)cc1F	active: 179%
CCCOc1cc(N)ccc1C(=O)OCCN(CC)CC	inactive: -0.147%
CN1CCN(S(=O)(=O)c2ccc(N3CCN(c4ccc(O)cc4)CC3)c([N+](=O)[O-])c2)CC1	inactive: -2.04%
Cc1ccc(S(=O)(=O)N2[C@@H](c3ccccc3)C(C(=O)O)=CC[C@H]2c2ccc(C(C)C)cc2)cc1	active: 133%
